Data: PMC7819943, “Rice protein-binding microarrays: a tool to detect cis-acting elements near promoter regions in rice”
This is one part of the list.

By UniProt entry, the sequences of proteins in these tests, tags left out.
UniProt Q0JBA9, entry or part of it: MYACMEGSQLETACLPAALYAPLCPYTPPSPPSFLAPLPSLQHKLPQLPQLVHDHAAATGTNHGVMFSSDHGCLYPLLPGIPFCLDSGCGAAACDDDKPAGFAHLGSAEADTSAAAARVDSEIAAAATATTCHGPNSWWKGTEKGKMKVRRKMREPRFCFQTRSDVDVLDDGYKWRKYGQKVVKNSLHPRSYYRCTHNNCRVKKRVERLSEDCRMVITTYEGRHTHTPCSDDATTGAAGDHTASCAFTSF

What follows are sequences tested against OsWRKY34 (Oryza sativa, UniProt Q0JBA9 1-250) (assay: protein-binding microarray (RPBM); PBS, 2% BSA, 51.3 ng/ul salmon testes DNA, 50 uM zinc acetate, 200 nM TF, 25 C, 1 h; high values mean tight binding). Conditions: protein: recombinant; tags: N-terminal polyhistidine and DsRed monomer fusion (pET32a); label: CyDye5-dUTP incorporated in the synthesized complementary strand; 3' TTTTT single-stranded linker to array surface; dsDNA, one strand shown.
How it was run: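 The binding signal for each feature is its fluorescence intensity in arbitrary units. An Axon 4000B scanner was used to read a custom Agilent array that had been made double-stranded with Cy5-dUTP primer extension, blocked with 2% BSA, incubated at 25 °C for 1 h with 200 nM protein in PBS, 2% BSA, salmon testes DNA and 50 µM zinc acetate, and washed. The protein was an N-terminal polyhistidine–DsRed transcription factor fusion from E. coli BL21-CodonPlus, purified on Ni–NTA.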

Sequence	binding signal
AGTACTAGCTGGCATCGATTGGTTTCTTCCGTGTTCCTTTCGGAGTCACCTAGTGCAG	10800 fluorescence intensity (a.u.)
ATTCTTTCCATGCATTCGTTGCCTCTCAACTGCACCAGCTCGGAGTCACCTAGTGCAG	10800 fluorescence intensity (a.u.)
CGCTGACATTTCAAATCCCCGGGTACCCATCCGCCGTCCACGGAGTCACCTAGTGCAG	8650 fluorescence intensity (a.u.)
AGGCTTCCAATCTTGTGCTAATCTGCTGGTGAAGTATATGCGGAGTCACCTAGTGCAG	8480 fluorescence intensity (a.u.)
GCCTCTCTTTACGCTCGTGCCCACCGCCATGTTGATCTACCGGAGTCACCTAGTGCAG	11100 fluorescence intensity (a.u.)
TTTTTGTCTTTTATTGCTTCTTCTCCTGGATGGCATCTGACGGAGTCACCTAGTGCAG	9180 fluorescence intensity (a.u.)
ATGCGATTTTTTTCTTACCTTAACTGCAGACAATTAGTTACGGAGTCACCTAGTGCAG	9460 fluorescence intensity (a.u.)
AAACCTGGTCGAACCCAACCGCCTTCGTCCGGTCCGGACGCGGAGTCACCTAGTGCAG	9010 fluorescence intensity (a.u.)
CGCTTCTATCGCCACGTGTCTAGGGTTTGGGTTTTGATACCGGAGTCACCTAGTGCAG	14000 fluorescence intensity (a.u.)
TTTTGGAAATTAGGGGCGGGTTATACCCAGTTTTGCGGTTCGGAGTCACCTAGTGCAG	12700 fluorescence intensity (a.u.)
CGTCATTTTTTTTAACCTTTTCCTATACGTCTCATTTCTTCGGAGTCACCTAGTGCAG	9760 fluorescence intensity (a.u.)
GTTTTTAATGTTTATGTCACGTATGTTTAATCATTTATCTCGGAGTCACCTAGTGCAG	8330 fluorescence intensity (a.u.)
GATGTTTCAGGCAGCACATACGGATGTTTCTCGTATTTCGCGGAGTCACCTAGTGCAG	8030 fluorescence intensity (a.u.)
CATAGGGGAATCGGACTTTTTTTATCTATGTTGGTTTTTTCGGAGTCACCTAGTGCAG	13100 fluorescence intensity (a.u.)
TAAATGTGCTCTTGCCACCCGATATCGTTATCTCTACTGCCGGAGTCACCTAGTGCAG	8600 fluorescence intensity (a.u.)
TACGAGCTTCTCCTCCTCCGCTGGTCATCATCCTACCTGTCGGAGTCACCTAGTGCAG	8440 fluorescence intensity (a.u.)
AGATTAGATCATAGGCAGTCTTTCTTTTCTTTCTTTTTTTCGGAGTCACCTAGTGCAG	10200 fluorescence intensity (a.u.)
AGTTAATCCTTGTTAAACTTTGGTTTCAAAACAATTTCCCCGGAGTCACCTAGTGCAG	65500 fluorescence intensity (a.u.)
GTGTTCTGGTAGCTTTTCTTGGTACGCTGCGTTGGAAGGACGGAGTCACCTAGTGCAG	8150 fluorescence intensity (a.u.)
AACGCCACGCGAAGCTTTTTTGACCTCGCGCTTTTCCACCCGGAGTCACCTAGTGCAG	9730 fluorescence intensity (a.u.)
TGCATTCCTGTCAGAATCCTATGTTTTTCCTATTTCTCCGCGGAGTCACCTAGTGCAG	10900 fluorescence intensity (a.u.)

Sequence	binding signal
CCACAGCAGACTGGCTAGTAATTACTACTCCCTCCGTTTCCGGAGTCACCTAGTGCAG	8150 fluorescence intensity (a.u.)
GCGTCACCGCCTCAACTTGTCATCAGTCTGCCGCTCCCTCCGGAGTCACCTAGTGCAG	12800 fluorescence intensity (a.u.)
ATTCAAACATTAGGATTTTTTTCCTATATGCCTCATTCCTCGGAGTCACCTAGTGCAG	8230 fluorescence intensity (a.u.)
ATAATTCCTTGTGTACTCATCCAGCTTTCAATACTACATACGGAGTCACCTAGTGCAG	9400 fluorescence intensity (a.u.)
GAAAAACCCACCCGGATCGATCGATATTCCCGGCGTTTCCCGGAGTCACCTAGTGCAG	8520 fluorescence intensity (a.u.)
ACTTTTGTACTTCTTTGATCTTTGTTAGTTTTGATCTGATCGGAGTCACCTAGTGCAG	9630 fluorescence intensity (a.u.)
AGTTTCGAAATATTTGACGCCGTTGACTTTTTATCAAATGCGGAGTCACCTAGTGCAG	28300 fluorescence intensity (a.u.)
TAGTTAGGAGTTGAGTTGACCAACTTAACTACCTTTCGCCCGGAGTCACCTAGTGCAG	10400 fluorescence intensity (a.u.)
TGCACTTATCTATTCTTTTCTATGTATTATGTTTTAGGTGCGGAGTCACCTAGTGCAG	8340 fluorescence intensity (a.u.)
CTCCCATCGATGTAACTCTCTCACTTTCTTCTCTCTAGAACGGAGTCACCTAGTGCAG	8600 fluorescence intensity (a.u.)
AGATATAGATGTCCCTCTTGTCACCTCCACCACCGTTGACCGGAGTCACCTAGTGCAG	14400 fluorescence intensity (a.u.)
GCTCTCATCAACTCGACTCGACCGGTAATCGATCGCGACTCGGAGTCACCTAGTGCAG	8640 fluorescence intensity (a.u.)
CTGTTAGTCCAAAAATGGATGGCTGGGGTGGGCTCTACTTCGGAGTCACCTAGTGCAG	12600 fluorescence intensity (a.u.)
TAAAACACTAATGAATCGATTGATCTCGTCTCACCAGTTACGGAGTCACCTAGTGCAG	8050 fluorescence intensity (a.u.)
GTCCCCATCCCATTCGGCCACCGATCCCAATCTCAATCTGCGGAGTCACCTAGTGCAG	8480 fluorescence intensity (a.u.)
TGTCCAACTTTTGCTGGTTCATCTGCATCGATCTTAATTCCGGAGTCACCTAGTGCAG	10700 fluorescence intensity (a.u.)
ACTAGTTAACACATATTCCTAGTCAAATTTGTTTTTTTTCCGGAGTCACCTAGTGCAG	10100 fluorescence intensity (a.u.)
TGCGGGTTGGGGATCTCATCGCGGCGGCGGCGGCGGACTACGGAGTCACCTAGTGCAG	9190 fluorescence intensity (a.u.)
ATTTGACCGCCGGTGTCGCCACCTCCCAGCCACTGGAGCACGGAGTCACCTAGTGCAG	8330 fluorescence intensity (a.u.)
ACTTTTACATGGTGTTTCCACTTTCCAGTTCCTTGTTTCTCGGAGTCACCTAGTGCAG	10000 fluorescence intensity (a.u.)
GGACGAGGTCTTCTAGCTCCATATTTTGTTTTGCTTTTCTCGGAGTCACCTAGTGCAG	12400 fluorescence intensity (a.u.)

Quoted at random: four records from the list
Sequence	binding signal
ACTTTTGTACTTCTTTGATCTTTGTTAGTTTTGATCTGATCGGAGTCACCTAGTGCAG	9630 fluorescence intensity (a.u.)
CTCCCATCGATGTAACTCTCTCACTTTCTTCTCTCTAGAACGGAGTCACCTAGTGCAG	8600 fluorescence intensity (a.u.)
GCGTCACCGCCTCAACTTGTCATCAGTCTGCCGCTCCCTCCGGAGTCACCTAGTGCAG	12800 fluorescence intensity (a.u.)
CTGTTAGTCCAAAAATGGATGGCTGGGGTGGGCTCTACTTCGGAGTCACCTAGTGCAG	12600 fluorescence intensity (a.u.)

More entries

Sequence	binding signal
GGGGTGAGTTAGACTGACATGTGGGGCCCGCCATTCTTTTCGGAGTCACCTAGTGCAG	10100 fluorescence intensity (a.u.)
CATGTCGGTCTGACTGGTCTTTACTCATATGCTCAAATCCCGGAGTCACCTAGTGCAG	8280 fluorescence intensity (a.u.)
CCAAAGTTAGGTCGTACAGTTTGACCAAGTTAATACTAGTCGGAGTCACCTAGTGCAG	8730 fluorescence intensity (a.u.)
GAATCTTTCTTTTCCTTTCCCCTTTTCGTTTCTGTTTTTTCGGAGTCACCTAGTGCAG	10600 fluorescence intensity (a.u.)
ACGAACGGTCAAATATGTTTGGAAAAGTCAACGGCGTCAACGGAGTCACCTAGTGCAG	10700 fluorescence intensity (a.u.)
CCCGCAAGAAACACCACACCTCGCCGCCGGCGACCCACCGCGGAGTCACCTAGTGCAG	8660 fluorescence intensity (a.u.)
CTAGTGAGCTGTGTAGTTCGTTGTGCCTATGACTGTTAACCGGAGTCACCTAGTGCAG	9690 fluorescence intensity (a.u.)
TTACTCGAGCCATTGCCACTTCTTTTTCTTCTTTGAATTACGGAGTCACCTAGTGCAG	9580 fluorescence intensity (a.u.)
ACCTAGCATCAATCCTCGCTGAACATTATTTGTTATATACCGGAGTCACCTAGTGCAG	11700 fluorescence intensity (a.u.)
ACGTGGCGGCGTTGACTTAGTCTTCGTTCCACGTGTAGTTCGGAGTCACCTAGTGCAG	11400 fluorescence intensity (a.u.)
ATTGTTTTAGCCACCTTCCCACTCCTGCCATTATCCATTCCGGAGTCACCTAGTGCAG	10200 fluorescence intensity (a.u.)
GTTCCAAATCGTCGCAGTTACCGTCTTCTCCACTAATTTCCGGAGTCACCTAGTGCAG	9590 fluorescence intensity (a.u.)
TTGGTTGAGTGGGGAGAGAGAGGGGAAAACACCAAGAAAGCGGAGTCACCTAGTGCAG	8710 fluorescence intensity (a.u.)
AAACCTCCACCACCACCGCCACCACCGCCGCGCAAAACCCCGGAGTCACCTAGTGCAG	8700 fluorescence intensity (a.u.)
GAAACAAAGCCCCAAAACCCAATCTATCCTCAATTGATTTCGGAGTCACCTAGTGCAG	8500 fluorescence intensity (a.u.)
TACTGGTTTGTGTGTGTCGGTATTTCCCTTACAAAATGATCGGAGTCACCTAGTGCAG	10000 fluorescence intensity (a.u.)
TGTCTTATTTCTGCATGTCTCTTAGAAGTCAAAATTTATACGGAGTCACCTAGTGCAG	9530 fluorescence intensity (a.u.)
TTAACAGCGAAGCAAAACATCTCACTTTTTTTCTCTTTTGCGGAGTCACCTAGTGCAG	9950 fluorescence intensity (a.u.)
AAATCTAACGGCCCATGAACGCATCTCACCGTCCCCTTCTCGGAGTCACCTAGTGCAG	8910 fluorescence intensity (a.u.)
ATGTTGTCGCGACTTTCGTATTCAGTCATTTAAGATATGTCGGAGTCACCTAGTGCAG	10900 fluorescence intensity (a.u.)
ATCCCGCGCAAAAGCTGCGGCTCCACGCGCGCGCGTCATCCGGAGTCACCTAGTGCAG	8080 fluorescence intensity (a.u.)

Sequence	binding signal
CATATTTCTTCTCTCTCTCTACCACCCTACCTAGCTTAGACGGAGTCACCTAGTGCAG	9360 fluorescence intensity (a.u.)
CCTCCTTCGCCGTCATGGAGGCCCTCGGCTCCGCGCTCACCGGAGTCACCTAGTGCAG	8460 fluorescence intensity (a.u.)
CTCTGCACCCAGCCCAGTCCGAGCAATTTCTTTTACGTTGCGGAGTCACCTAGTGCAG	10300 fluorescence intensity (a.u.)
CGGTGAGGGGTGGACTGGGAGTGCGTGGGTGGGTGTGATGCGGAGTCACCTAGTGCAG	13400 fluorescence intensity (a.u.)
CCATTTCCGTACCGTTTTAGCCCATACACCACACTTGTGGCGGAGTCACCTAGTGCAG	9000 fluorescence intensity (a.u.)
TCGCCGCAACCGCAATGTAAGCCGCTTGCCTTTTCTTCTTCGGAGTCACCTAGTGCAG	8650 fluorescence intensity (a.u.)
TTAGCGGCGGTGGCAAGTGCTCCAACATTGACTTCTAACTCGGAGTCACCTAGTGCAG	8380 fluorescence intensity (a.u.)
TGATTTCATCCACTTTTCCTTTCGGTTGTTCTCATTCACTCGGAGTCACCTAGTGCAG	13600 fluorescence intensity (a.u.)
CTCTCGGCCGCCGCTCCGCCGTGCCTATGGCCGCCGCCGGCGGAGTCACCTAGTGCAG	8550 fluorescence intensity (a.u.)
ACTTGATGTTGTCATATGATGGTTGCATGCTTGCATGTTTCGGAGTCACCTAGTGCAG	8130 fluorescence intensity (a.u.)
TGTCTTCCAGTTTGATCCTTCCATGCAGTATATCAGTATTCGGAGTCACCTAGTGCAG	9900 fluorescence intensity (a.u.)
TGAGCTTACACGTTTTGATACCTGTGATGTTCGAATAAACCGGAGTCACCTAGTGCAG	9050 fluorescence intensity (a.u.)
CTGAGAATTTAGGACCTGATCACTTTTATGACATTTTCAACGGAGTCACCTAGTGCAG	8610 fluorescence intensity (a.u.)
TCCATTCTCCACTCTCCTCTCTCTCAATCATTCTAATCGACGGAGTCACCTAGTGCAG	8330 fluorescence intensity (a.u.)
GAGACCGCCGCCGCCTCCTCGTCCGGCCGCCGCCTCGTCCCGGAGTCACCTAGTGCAG	9360 fluorescence intensity (a.u.)
TCCGAAATGTCACGCCGTTATGCATTTGCTGTTTTGCCGTCGGAGTCACCTAGTGCAG	8750 fluorescence intensity (a.u.)
CACAGTTTTTGCAGCCGGAACGAGCTGTCCAGGCTACTACCGGAGTCACCTAGTGCAG	8260 fluorescence intensity (a.u.)
GCTCCATCCCTCCGTCTTCCACGGCGCGAGACTCTCTCGACGGAGTCACCTAGTGCAG	10000 fluorescence intensity (a.u.)
CTCTCGGTCTTGCAGTGCATAATGTTTTTTGTTTTTTTTTCGGAGTCACCTAGTGCAG	10700 fluorescence intensity (a.u.)
CCAAGTATCCATCACACGTCTCTCCTTTCCACCTCGTCAACGGAGTCACCTAGTGCAG	12700 fluorescence intensity (a.u.)
ATGACGAGGACGGGCGGTGGGCATGGGCGGTTGGCGAGGACGGAGTCACCTAGTGCAG	8850 fluorescence intensity (a.u.)
